Experimental data: PubChem BioAssay AID743458 (Peter MacCallum Cancer Centre, 2014)
In all, the deposit lists about 1,800 reagents; shown is a random part of them. Over the whole deposit, 732 (41%) got an active call. 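Calls are per siRNA reagent; a gene was deemed confirmed only if most of its four siRNAs scored.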 Entries without a mark were called inactive.

Aim: 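Retest earlier hits with independent siRNAs per gene for restoring vorinostat sensitivity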 (follow-up of hits)
System: human HCT116-VR colon cancer cells made resistant to vorinostat
Reagents: single siRNA or pool against human genes, 25 nM per single siRNA
Duration: about 72 h after transfection, including 24 h of drug
Conditions: vorinostat, 2.5 µM final, for 24 h
Measured: 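Cell viability by fluorescence and apoptosis by caspase 3/7 luminescence under vorinostat, background-corrected, averaged across two plate copies and given as fold change versus mock transfection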
Scale: viability relative to mock: higher = more living cells than mock; caspase activity relative to mock: higher = more apoptosis than mock
Hit rule: 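An siRNA counts as active if classed as reduced viability or as caspase activation, otherwise inactive; a hit class needed wells that remained healthy in the absence of drug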

What is on record for KCNE1 [SID134245249]?
viability relative to mock: 0.86; caspase activity relative to mock: 1.36; viability hit class: no change; caspase hit class: no change

With KCNE1 [SID134245250], what was measured?
viability relative to mock: 0.96; caspase activity relative to mock: 1.21; viability hit class: no change; caspase hit class: no change

With KCNE1 [SID134245251], how do the results read?
viability relative to mock: 0.99; caspase activity relative to mock: 1.12; viability hit class: no change; caspase hit class: no change

For KCNE1 [SID134245252], what does the deposit list?
viability relative to mock: 0.98; caspase activity relative to mock: 1.25; viability hit class: no change; caspase hit class: no change

For NPEPL1 [SID134235337], what does the deposit list?
viability relative to mock: 0.78; caspase activity relative to mock: 0.66; viability hit class: no change; caspase hit class: no change

Which result is listed for NPEPL1 [SID134235338]?
viability relative to mock: 0.78; caspase activity relative to mock: 1.03; viability hit class: no change; caspase hit class: no change

With NPEPL1 [SID134235339], what does the deposit list?
viability relative to mock: 0.54 (active); caspase activity relative to mock: 1.73; viability hit class: reduced viability; caspase hit class: no change

For NPEPL1 [SID134235340], how do the results read?
viability relative to mock: 0.74; caspase activity relative to mock: 0.83; viability hit class: no change; caspase hit class: no change

What is on record for LCE2A [SID134281105]?
viability relative to mock: 0.92 (active); caspase activity relative to mock: 6.5; viability hit class: no change; caspase hit class: caspase activation

What did the screen give for LCE2A [SID134281106]?
viability relative to mock: 0.78; caspase activity relative to mock: 2.34; viability hit class: no change; caspase hit class: no change

What did the screen give for LCE2A [SID134281107]?
viability relative to mock: 0.44; caspase activity relative to mock: 4.2; viability hit class: no change; caspase hit class: no change

How did the screen score LCE2A [SID134281108]?
viability relative to mock: 0.74 (active); caspase activity relative to mock: 3.08; viability hit class: no change; caspase hit class: caspase activation

With GPR152 [SID134307633], how do the results read?
viability relative to mock: 0.73; caspase activity relative to mock: 2.5; viability hit class: no change; caspase hit class: no change

How did the screen score GPR152 [SID134307634]?
viability relative to mock: 1.05; caspase activity relative to mock: 1.56; viability hit class: no change; caspase hit class: no change

For GPR152 [SID134307635], how do the results read?
viability relative to mock: 0.68; caspase activity relative to mock: 1.65; viability hit class: no change; caspase hit class: no change

What is on record for GPR152 [SID134307636]?
viability relative to mock: 0.64 (active); caspase activity relative to mock: 3.91; viability hit class: no change; caspase hit class: caspase activation

Active calls (from the list above):
NPEPL1 [SID134235339] | viability relative to mock: 0.54 (active); caspase activity relative to mock: 1.73; viability hit class: reduced viability; caspase hit class: no change
LCE2A [SID134281105] | viability relative to mock: 0.92 (active); caspase activity relative to mock: 6.5; viability hit class: no change; caspase hit class: caspase activation
LCE2A [SID134281108] | viability relative to mock: 0.74 (active); caspase activity relative to mock: 3.08; viability hit class: no change; caspase hit class: caspase activation
GPR152 [SID134307636] | viability relative to mock: 0.64 (active); caspase activity relative to mock: 3.91; viability hit class: no change; caspase hit class: caspase activation
